Measured values published in article PMC3746198.
Read-outs that look alike come from different tables or passages of the source. Results are given in words; binding and its absence hold for the method and conditions named. Binding seen in cells or lysates may run through a third protein. Here binding means that the protein was enriched with, or labelled near, the bait; the list need not be complete. For part of these data: A no says only that the protein was not detected with the bait. Where a sequence is shown, tags or fusion partners need not be part of it.

Protein sequences, listed by entry. Tags and fused reporters are not part of them.
UniProt P48432: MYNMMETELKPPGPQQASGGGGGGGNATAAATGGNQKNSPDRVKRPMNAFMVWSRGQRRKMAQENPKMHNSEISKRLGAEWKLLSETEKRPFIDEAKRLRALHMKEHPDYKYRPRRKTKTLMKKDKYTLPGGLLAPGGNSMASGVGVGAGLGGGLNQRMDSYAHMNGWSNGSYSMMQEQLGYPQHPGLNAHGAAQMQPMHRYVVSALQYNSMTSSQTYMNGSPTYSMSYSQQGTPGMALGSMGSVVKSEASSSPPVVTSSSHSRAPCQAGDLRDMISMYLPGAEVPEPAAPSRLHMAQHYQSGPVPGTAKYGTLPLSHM
UniProt Q3URK3: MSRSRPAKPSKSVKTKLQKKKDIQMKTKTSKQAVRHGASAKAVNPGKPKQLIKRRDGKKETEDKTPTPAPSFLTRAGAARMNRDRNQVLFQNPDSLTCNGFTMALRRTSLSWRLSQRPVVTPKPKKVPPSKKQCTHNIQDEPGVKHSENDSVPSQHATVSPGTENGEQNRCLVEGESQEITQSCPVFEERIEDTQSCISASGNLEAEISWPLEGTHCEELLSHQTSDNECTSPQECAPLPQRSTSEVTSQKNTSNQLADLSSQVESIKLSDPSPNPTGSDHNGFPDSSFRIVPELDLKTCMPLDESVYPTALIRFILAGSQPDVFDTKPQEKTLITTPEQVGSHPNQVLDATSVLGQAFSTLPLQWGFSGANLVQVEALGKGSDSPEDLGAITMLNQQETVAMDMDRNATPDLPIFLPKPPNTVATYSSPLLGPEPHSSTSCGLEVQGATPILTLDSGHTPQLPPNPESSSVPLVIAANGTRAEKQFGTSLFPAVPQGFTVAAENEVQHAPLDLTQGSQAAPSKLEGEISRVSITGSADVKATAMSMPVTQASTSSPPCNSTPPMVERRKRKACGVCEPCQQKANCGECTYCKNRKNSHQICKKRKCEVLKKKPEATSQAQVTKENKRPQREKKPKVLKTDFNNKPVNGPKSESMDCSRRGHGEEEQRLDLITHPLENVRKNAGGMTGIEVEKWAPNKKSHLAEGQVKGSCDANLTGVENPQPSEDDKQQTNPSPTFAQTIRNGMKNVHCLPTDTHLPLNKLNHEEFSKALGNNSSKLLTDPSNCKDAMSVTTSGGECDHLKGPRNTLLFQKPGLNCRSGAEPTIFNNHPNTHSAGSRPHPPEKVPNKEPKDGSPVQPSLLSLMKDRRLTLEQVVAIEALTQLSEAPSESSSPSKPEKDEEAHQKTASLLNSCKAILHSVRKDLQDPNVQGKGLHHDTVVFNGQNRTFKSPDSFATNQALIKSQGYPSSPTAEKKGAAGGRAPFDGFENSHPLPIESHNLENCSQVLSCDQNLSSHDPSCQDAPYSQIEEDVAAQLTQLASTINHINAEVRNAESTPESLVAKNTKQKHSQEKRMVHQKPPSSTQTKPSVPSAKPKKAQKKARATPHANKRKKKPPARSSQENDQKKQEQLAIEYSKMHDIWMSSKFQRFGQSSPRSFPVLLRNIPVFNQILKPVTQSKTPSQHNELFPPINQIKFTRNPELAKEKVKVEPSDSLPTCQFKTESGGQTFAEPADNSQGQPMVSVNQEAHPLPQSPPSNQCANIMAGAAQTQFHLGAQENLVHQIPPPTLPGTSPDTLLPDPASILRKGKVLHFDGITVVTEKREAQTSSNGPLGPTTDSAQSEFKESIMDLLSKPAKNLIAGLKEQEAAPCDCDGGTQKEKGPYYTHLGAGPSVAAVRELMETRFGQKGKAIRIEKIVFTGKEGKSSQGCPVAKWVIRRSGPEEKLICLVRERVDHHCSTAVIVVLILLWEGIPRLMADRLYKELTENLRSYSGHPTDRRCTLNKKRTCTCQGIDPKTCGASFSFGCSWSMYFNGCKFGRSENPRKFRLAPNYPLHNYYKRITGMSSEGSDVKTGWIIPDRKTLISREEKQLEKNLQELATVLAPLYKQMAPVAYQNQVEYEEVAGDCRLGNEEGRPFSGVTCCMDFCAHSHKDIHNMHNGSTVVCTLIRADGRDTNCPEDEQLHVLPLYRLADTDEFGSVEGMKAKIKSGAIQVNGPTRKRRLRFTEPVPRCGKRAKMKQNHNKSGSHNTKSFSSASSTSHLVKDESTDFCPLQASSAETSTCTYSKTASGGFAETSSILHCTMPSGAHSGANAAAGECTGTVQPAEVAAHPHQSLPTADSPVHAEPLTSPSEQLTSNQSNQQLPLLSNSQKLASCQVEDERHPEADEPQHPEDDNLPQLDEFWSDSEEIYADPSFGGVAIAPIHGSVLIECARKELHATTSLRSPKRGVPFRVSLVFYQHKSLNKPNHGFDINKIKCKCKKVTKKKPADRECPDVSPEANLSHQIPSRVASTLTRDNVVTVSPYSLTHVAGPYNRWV
UniProt Q80U58: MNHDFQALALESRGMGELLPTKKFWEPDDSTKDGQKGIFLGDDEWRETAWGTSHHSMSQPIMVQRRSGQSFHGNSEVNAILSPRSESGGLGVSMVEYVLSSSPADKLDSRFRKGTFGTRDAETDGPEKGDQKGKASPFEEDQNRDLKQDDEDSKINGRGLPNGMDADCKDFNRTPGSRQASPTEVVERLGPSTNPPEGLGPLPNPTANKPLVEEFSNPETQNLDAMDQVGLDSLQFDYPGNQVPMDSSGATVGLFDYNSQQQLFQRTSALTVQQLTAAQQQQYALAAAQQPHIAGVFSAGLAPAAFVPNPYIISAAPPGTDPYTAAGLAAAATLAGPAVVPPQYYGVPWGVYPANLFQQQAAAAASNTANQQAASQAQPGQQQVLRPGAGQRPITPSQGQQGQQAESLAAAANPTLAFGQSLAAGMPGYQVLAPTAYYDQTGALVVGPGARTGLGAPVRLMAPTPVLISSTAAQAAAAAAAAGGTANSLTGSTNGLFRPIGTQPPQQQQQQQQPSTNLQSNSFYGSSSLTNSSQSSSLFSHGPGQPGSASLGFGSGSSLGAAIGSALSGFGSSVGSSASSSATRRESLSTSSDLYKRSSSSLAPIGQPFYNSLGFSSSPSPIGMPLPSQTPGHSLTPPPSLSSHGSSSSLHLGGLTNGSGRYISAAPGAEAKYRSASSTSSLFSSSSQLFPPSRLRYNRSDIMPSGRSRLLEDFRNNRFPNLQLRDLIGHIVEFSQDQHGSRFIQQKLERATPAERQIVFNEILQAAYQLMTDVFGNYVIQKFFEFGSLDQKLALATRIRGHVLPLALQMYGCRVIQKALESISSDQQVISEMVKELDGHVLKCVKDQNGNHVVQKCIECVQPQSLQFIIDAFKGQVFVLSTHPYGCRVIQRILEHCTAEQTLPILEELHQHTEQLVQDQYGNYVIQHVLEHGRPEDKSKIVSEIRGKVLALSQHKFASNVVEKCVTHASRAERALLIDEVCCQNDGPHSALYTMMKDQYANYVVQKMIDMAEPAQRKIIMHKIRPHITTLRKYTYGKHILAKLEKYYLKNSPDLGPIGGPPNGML
UniProt Q06831: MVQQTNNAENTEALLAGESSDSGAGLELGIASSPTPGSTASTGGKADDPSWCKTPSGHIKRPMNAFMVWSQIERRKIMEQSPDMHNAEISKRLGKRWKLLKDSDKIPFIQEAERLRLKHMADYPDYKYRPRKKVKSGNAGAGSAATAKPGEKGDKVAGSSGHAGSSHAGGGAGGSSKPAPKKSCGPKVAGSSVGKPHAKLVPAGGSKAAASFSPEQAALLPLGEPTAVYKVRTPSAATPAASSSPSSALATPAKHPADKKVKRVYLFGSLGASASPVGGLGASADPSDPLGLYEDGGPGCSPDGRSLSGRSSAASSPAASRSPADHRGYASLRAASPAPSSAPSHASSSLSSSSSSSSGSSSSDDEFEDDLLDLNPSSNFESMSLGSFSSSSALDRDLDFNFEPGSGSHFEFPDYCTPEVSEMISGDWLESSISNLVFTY
UniProt Q80U78: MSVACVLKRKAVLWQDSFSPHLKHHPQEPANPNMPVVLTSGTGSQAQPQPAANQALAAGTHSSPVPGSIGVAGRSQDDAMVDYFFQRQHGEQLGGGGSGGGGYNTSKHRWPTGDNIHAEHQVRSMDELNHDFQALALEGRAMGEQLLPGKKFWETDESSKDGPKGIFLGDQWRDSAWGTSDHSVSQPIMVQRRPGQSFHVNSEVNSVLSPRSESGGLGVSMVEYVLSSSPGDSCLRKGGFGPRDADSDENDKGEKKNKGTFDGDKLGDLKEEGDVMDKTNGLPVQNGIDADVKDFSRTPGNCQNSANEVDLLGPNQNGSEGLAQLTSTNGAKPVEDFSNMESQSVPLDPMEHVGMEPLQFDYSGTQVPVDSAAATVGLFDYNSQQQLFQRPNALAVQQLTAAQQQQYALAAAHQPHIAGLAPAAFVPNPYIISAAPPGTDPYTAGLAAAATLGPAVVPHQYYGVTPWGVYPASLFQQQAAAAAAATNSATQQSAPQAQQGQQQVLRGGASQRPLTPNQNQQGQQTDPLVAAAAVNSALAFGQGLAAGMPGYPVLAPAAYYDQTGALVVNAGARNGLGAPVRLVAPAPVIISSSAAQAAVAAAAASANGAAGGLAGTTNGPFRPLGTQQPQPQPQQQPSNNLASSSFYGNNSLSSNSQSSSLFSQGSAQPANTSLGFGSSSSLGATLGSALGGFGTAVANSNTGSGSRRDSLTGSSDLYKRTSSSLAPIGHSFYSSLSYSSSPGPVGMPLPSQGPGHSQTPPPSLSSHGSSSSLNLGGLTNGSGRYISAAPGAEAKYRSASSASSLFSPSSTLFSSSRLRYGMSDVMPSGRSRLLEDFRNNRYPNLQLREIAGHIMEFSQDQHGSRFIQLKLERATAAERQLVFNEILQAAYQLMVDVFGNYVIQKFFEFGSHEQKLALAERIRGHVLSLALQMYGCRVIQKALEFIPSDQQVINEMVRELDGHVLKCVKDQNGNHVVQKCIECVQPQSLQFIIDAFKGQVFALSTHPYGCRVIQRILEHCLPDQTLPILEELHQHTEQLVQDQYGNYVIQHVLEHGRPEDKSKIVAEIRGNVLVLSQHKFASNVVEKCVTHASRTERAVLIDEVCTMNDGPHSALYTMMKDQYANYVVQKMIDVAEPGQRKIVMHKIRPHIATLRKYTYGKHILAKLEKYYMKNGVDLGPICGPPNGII
UniProt Q7M6Y2: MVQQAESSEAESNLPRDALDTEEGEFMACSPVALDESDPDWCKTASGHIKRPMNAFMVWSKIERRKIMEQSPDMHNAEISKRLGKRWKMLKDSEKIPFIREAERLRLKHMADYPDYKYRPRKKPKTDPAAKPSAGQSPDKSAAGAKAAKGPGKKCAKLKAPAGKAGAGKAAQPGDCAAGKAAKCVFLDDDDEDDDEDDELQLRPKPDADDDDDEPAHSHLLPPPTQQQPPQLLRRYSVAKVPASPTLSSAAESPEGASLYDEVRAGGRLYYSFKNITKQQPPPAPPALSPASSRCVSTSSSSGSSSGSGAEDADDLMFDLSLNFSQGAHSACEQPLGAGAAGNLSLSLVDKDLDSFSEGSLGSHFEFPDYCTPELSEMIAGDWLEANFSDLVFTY
UniProt P43267: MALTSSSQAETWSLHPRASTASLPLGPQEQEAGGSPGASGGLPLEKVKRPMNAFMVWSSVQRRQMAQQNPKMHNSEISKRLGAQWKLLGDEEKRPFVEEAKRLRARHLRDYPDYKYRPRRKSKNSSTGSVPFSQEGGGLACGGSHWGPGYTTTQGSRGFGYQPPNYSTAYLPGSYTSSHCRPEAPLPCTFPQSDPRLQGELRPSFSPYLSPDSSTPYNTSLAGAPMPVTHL

What was measured:
(FLAG)3Nanog [1] = target: T1, (FLAG)3Nanog (UniProt Q80Z64); experiment: affinity purification with mass spectrometry; FLAG-agarose purification of (FLAG)3Nanog from nuclear extract of E14Tg2a F-Nanog and RCNβH-B(t):F-Nanog ES cells, 150 U/ml Benzonase (4°C, 3 h), eluted with Flag peptide (0.2 mg/ml); parental cells as control; hits in two of three purifications
T1 sequence: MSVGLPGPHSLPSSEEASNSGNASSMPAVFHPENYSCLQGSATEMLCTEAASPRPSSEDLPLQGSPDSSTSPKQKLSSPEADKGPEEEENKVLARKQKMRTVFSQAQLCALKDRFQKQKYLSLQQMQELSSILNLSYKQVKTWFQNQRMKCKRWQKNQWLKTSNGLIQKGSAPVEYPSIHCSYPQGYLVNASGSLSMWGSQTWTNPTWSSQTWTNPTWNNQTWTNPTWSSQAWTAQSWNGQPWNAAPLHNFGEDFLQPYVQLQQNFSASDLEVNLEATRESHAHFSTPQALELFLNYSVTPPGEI

(FLAG)3Nanog [2] = target: T1, (FLAG)3Nanog; experiment: as above; remark: listed apart in the source

Sox2 (endogenous) (from UniProt P48432 1-319)
binding ((FLAG)3Nanog [1]): binds

TET-1 (from UniProt Q3URK3 1-2039)
binding ((FLAG)3Nanog [1]): binds

Pum2 (from UniProt Q80U58 1-1066)
binding ((FLAG)3Nanog [1]): binds

Sox4 (from UniProt Q06831 1-440)
binding ((FLAG)3Nanog [1]): no binding

Pum1 (from UniProt Q80U78 1-1189)
binding ((FLAG)3Nanog [1]): binds

Sox11 (from UniProt Q7M6Y2 1-395)
binding ((FLAG)3Nanog [1]): no binding

Sox15 (from UniProt P43267 1-231)
binding ((FLAG)3Nanog [1]): no binding

B1: Ilf3 (protein, UniProt Q9Z1X4 1-898)
chain: MRPMRIFVNDDRHVMAKHSSVYPTQEELEAVQNMVSHTERALKAVSDWIDEQEKGNSELSEAENMDTPPDDESKEGAGEQKAEHMTRTLRGVMRVGLVAKGLLLKGDLDLELVLLCKEKPTTALLDKVADNLAIQLTTVTEDKYEILQSVDDAAIVIKNTKEPPLSLTIHLTSPVVREEMEKVLAGETLSVNDPPDVLDRQKCLAALASLRHAKWFQARANGLKSCVIVIRVLRDLCTRVPTWGPLRGWPLELLCEKSIGTANRPMGAGEALRRVLECLASGIVMPDGSGIYDPCEKEATDAIGHLDRQQREDITQSAQHALRLAAFGQLHKVLGMDPLPSKMPKKPKNENPVDYTVQIPPSTTYAITPMKRPMEEDGEEKSPSKKKKKIQKKEEKADPPQAMNALMRLNQLKPGLQYKLISQTGPVHAPIFTMSVEVDGSNFEASGPSKKTAKLHVAVKVLQDMGLPTGAEGRDSSKGEDSAEESDGKPAIVAPPPVVEAVSNPSSVFPSDATTEQGPILTKHGKNPVMELNEKRRGLKYELISETGGSHDKRFVMEVEVDGQKFQGAGSNKKVAKAYAALAALEKLFPDTPLALEANKKKRTPVPVRGGPKFAAKPHNPGFGMGGPMHNEVPPPPNIRGRGRGGNIRGRGRGRGFGGANHGGGYMNAGAGYGSYGYSSNSATAGYSQFYSNGGHSGNAGGGGSGGGGGSSSYSSYYQGDSYNSPVPPKHAGKKPLHGGQQKASYSSGYQSHQGQQQPYNQSQYSSYGTPQGKQKGYGHGQGSYSSYSNSYNSPGGGGGSDYSYDSKFNYSGSGGRSGGNSYGSSGSSSYNTGSHGGYGTGSGGSSSYQGKQGGYSSQSNYSSPGSSQSYSGPASSYQSSQGGYSRNTEHSMNYQYR
binding ((FLAG)3Nanog [2]): binds

B2: Rbm9 (protein, UniProt Q8BP71 1-449)
chain: MAEGGQAQQQPPQLGPGAAARGMKRESEVELPVPGAGADGPEPGLSKRPRTEEAADGGMQNEPLTPGYHGFPARDGQGNQEPTTTPDAMVQPFTTIPFPPPPQNGIPTEYGVPHTQDYAGQTSEHNLTLYGSTQPHGEQSSNSPSNQNGSLTQTEGGAQTDGQQSQTQSSENSESKSTPKRLHVSNIPFRFRDPDLRQMFGQFGKILDVEIIFNERGSKGFGFVTFENSADADRAREKLHGTVVEGRKIEVNNATARVMTNKKMVTPYANGWKLSPVVGAVYGPELYAASSFQADVSLGNEAAVPLSGRGGINTYIPLISLPLVPGFPYPTAATTAAAFRGAHLRGRGRTVYGAVRAVPPTAIPAYPGVVYQDGFYGADLYGGYAAYRYAQPATATAATAAAAAAAAYSDGYGRVYTADPYHALAPAASYGVGAVASLYRGGYSRFAPY
binding ((FLAG)3Nanog [2]): binds

B3: Zfp326 (protein, UniProt O88291 1-580)
chain: MDFEDDYVHSTCRGAYQDFNGMDRDYGPGSYGGLDRDYGHGSYGGQRSMDSYLNQSYGMDNHSGGGGGSRFGPYESYDSRSSLGGRDLYRSGYGFNEPEQTRFGGSYGGRFESSYRNSLDSFGGRNQGGSSWEAPYSRSKLRPGFMEDRGRENYSSYSSFSSPHMKPAPVGSRGRGTPAYPESTFGSRSYDAFGGPSTGRGRGRGHMGDFGSFHRPGIIVDYQNKPANVTIATARGIKRKMMQIFIKPGGAFIKKPKLAKPMDKMNLSKSPTKTDPKNEEEEKRRIEARREKQRRRREKNSEKYGDGYRMAFTCSFCKFRTFEEKDIELHLESSSHQETLDHIQKQTKFDKVVMEFLHECMVNKFKKASIRKQQTLNHPEAYKIIEKDIMEGVTADDHMMKVETVHCSACSVYIPALHSSVQLHLKSPDHSKGKQAYKEQIKRESVLTATSILNNPIVKARYERFVKGENPFEIQDHPQDQQIEGDEEDEEKIDEPIEEEEEEEEEEEEEGEEAGSVEEEGDVEGEEGTAEAAAAGEADAVGEAEGAGEAEEAEEEEEEEGTQEFAAQACATEQCEHRQM
binding ((FLAG)3Nanog [2]): binds

B4: Arid5b (protein, UniProt Q8BM75 1-1188)
chain: MEPNSLQWVGSPCGLHGPYIFYKAFQFHLEGKPRILSLGDFFFVRCTPKDPICIAELQLLWEERTSRQLLSSSKLYFLPEDTPQGRNSDHGEDEVIAVSEKVIVKLEDLVKWAHSDFSKWRCGLRATPVKTEAFGRNGQKEALLRYRQSTLNSGLNFKDVLKEKADLGEDEEETNVIVLSYPQYCRYRSMLKRIQDKPSSILTDQFALALGGIAVVSRNPQILYCRDTFDHPTLIENESVCDEFAPNLKGRPRKKKTCPQRRDSFSGSKDPNNNCDGKVISKVKGEARSALTKPKNNHNNCKKTSNEEKPKLSIGEECRADEQAFLVALYKYMKERKTPIERIPYLGFKQINLWTMFQAAQKLGGYETITARRQWKHIYDELGGNPGSTSAATCTRRHYERLILPYERFIKGEEDKPLPPIKPRKQENNTQENENKTKVSGNKRIKQEMAKNKKEKENTPKPQDTSEVSSEQRKEEETLNHKSAPEPLPAPEVKGKPEGHKDLGARAPVSRADPEKANETDQGSNSEKEAEEMGDKGLAPLLPSPPLPPEKDSAPTPGAGKQPLASPSTQMDSKQEAKPCCFTESPEKDLQGAPFSSFSATKPPLTSQNEAEEEQLPATANYIANCTVKVDQLGSDDIHTALKQTPKVLVVQSFDMFKDKDLTGPMNENHGLNYTPLLYSRGNPGIMSPLAKKKLLSQVSGASLSSSYPYGSPPPLISKKKLIAREDLCSGLSQGHHSQSSDHTAVSRPSVIQHVQSFKNKASEDRKSINDIFKHDKLSRSDAHRCGFSKHQLGSLADSYILKQETQEGKDKLLEKRAVSHAHVPSFLADFYSSPHLHSLYRHTEHHLHNEQSSKYAARDAYQESENGAFLSHKHPEKIHVNYLASLHLQDKKVAAAEASTDDQPTDLSLPKNPHKLTSKVLGLAHSTSGSQEIKGASQFQVVSNQSRDCHPKACRVSPMTMSGPKKYPESLARSGKPHQVRLENFRKMEGMVHPILHRKMSPQNIGAARPIKRSLEDLDLVIAGKKARAVSPLDPAKEASGKEKASEQESEGNKGAYGGHSGAASEGHKLPLSTPIFPGLYSGSLCNSGLNSRLPAGYSHSLQYLKNQTVLSPLMQPLAFHSLVMQRGIFTSPTNSQQLYRHLAAATPVGSSYGDLLHNSIYPLAGINPQAAFPSSQLSSVHPSTKL
binding ((FLAG)3Nanog [2]): binds

B5: Zfp609 (protein, UniProt Q8BZ47 1-1413)
chain: MSLSSGACGGKGVDANPVETYDSGDEWDIGVGNLIIDLDADLEKDQQKLEMSGSKEVGIPAPNAVATLPDNIKFVTPVPGPQGKEGKSKSKRSKSGKDASKPTPGTSLFSPSEGAASKKEVQGRAGDGASAGGLVAAVAPKGSEKAAKASRSVAGSKKEKENSSSKGKKERSEGVGTCSEKDPGVLQPVPLGGRGSQYDGSAGMDTGTVEPLGSIAIEPGAALNPLGTKPEPEEGENECRPLKKVKSEKMESPVSTPAVLPLHLLVPVVNNDISSPCEQIMVRTRSVGVNTCDVALATEPECLGPCEPGTSVNLEGIVWQETEDGMLVVNVTWRNKTYVGTLLDCTRHDWAPPRFCDSPTSDLEMRNGRGRGKRMRPSSNTPVSEAAAASDSKGTSSSSKTRAGANSKGRRGSQNSSEHRPPASSTSEDVKASPSSANKRKSKPLSDMELNSSSEDSKGSKRVRTNSMGSATGPLPGTKVEPTLVDRNCPSPVLIDCPHPNCNKKYKHINGLKYHQAHAHTDDDSKPEADGDSEYGEEPALHADLSCNGAPVPQKGSLSPARSATPKVRLVEPHSPSPSSKFSTKGLCKKKLSGEGDTDPGALSNDGSDDGPSVMDETSNDAFDSLERKCMEKEKCKKPSSLKSEKIPSKSLKSARPIAPAIPPQQIYTFQTATFTAASPGSSSGLTTTVVQAMPNSPQLKPIQPKPTVMGEPFTVNPALTPAKDKKKKDKKKKDSSKELESPLTPGKVCRAEEGKSPFRDAAGDGIKVESLLNGSSESHQSRLASIKAEADKIYSFTDNAPSPSIGGSSRLDSTTPTQPLTPLHVVTQNGAEASSVKTNSPAYSDISDAGEDGEGKVDSAKSKDPEQLVKEGAKKTLFPPQPQSKDSPYYQGFESYYSPGYAQSSPGTLTSSSQAGMEGQPLKTKKDEEPESVEGKVKNDVCEEKKPELSNSSQQPSVIQQRPNMYMQSLYYNQYAYVPPYGYSDQSYHSHLLSTNTAYRQQYEEQQKRQSLEQQQQQQRGLDKKTEMGLKEREASLKEEWKQKPSIPPTLTKAPSLTDLVKSGPGKAKEPGTDPAKSVIIPKLDDSSKLPSQPPEGLKGKLGEASHLGKEASEAKTGTECGRQAEVDPILWYRQETESRMWTYVYPAKYSDIKSEDDRWKEERDRKLKEDRSRSKDSVPKEDGKESTSSDCKLPPSEESRLGSKEPRPSVHVPVSSPLTQHQSYIPYMHGYSYSQSYDPNHPSYRGMPAVMMQNYPGSYLPSSYSFSPYGSKVSGGEDADKARASPSVSCKASSESKALDILQQHASHYKSKSPTISDKNSQERDRGGCGVVGGGGSCGSVAGAGGTDRSADRPRTSPSQRLMSTHHHHHHLGYSLLPAQYNLPYAAGLSSTAIVASQQGSTPSLYPPPRR
binding ((FLAG)3Nanog [2]): binds
